Test results from article PMC2709443.

Chains of the proteins cited; added tags and fusions are not shown. Lines headed by an entry give the natural chain unless they say otherwise; changes in a name come on top.
UniProt Q9SSD2: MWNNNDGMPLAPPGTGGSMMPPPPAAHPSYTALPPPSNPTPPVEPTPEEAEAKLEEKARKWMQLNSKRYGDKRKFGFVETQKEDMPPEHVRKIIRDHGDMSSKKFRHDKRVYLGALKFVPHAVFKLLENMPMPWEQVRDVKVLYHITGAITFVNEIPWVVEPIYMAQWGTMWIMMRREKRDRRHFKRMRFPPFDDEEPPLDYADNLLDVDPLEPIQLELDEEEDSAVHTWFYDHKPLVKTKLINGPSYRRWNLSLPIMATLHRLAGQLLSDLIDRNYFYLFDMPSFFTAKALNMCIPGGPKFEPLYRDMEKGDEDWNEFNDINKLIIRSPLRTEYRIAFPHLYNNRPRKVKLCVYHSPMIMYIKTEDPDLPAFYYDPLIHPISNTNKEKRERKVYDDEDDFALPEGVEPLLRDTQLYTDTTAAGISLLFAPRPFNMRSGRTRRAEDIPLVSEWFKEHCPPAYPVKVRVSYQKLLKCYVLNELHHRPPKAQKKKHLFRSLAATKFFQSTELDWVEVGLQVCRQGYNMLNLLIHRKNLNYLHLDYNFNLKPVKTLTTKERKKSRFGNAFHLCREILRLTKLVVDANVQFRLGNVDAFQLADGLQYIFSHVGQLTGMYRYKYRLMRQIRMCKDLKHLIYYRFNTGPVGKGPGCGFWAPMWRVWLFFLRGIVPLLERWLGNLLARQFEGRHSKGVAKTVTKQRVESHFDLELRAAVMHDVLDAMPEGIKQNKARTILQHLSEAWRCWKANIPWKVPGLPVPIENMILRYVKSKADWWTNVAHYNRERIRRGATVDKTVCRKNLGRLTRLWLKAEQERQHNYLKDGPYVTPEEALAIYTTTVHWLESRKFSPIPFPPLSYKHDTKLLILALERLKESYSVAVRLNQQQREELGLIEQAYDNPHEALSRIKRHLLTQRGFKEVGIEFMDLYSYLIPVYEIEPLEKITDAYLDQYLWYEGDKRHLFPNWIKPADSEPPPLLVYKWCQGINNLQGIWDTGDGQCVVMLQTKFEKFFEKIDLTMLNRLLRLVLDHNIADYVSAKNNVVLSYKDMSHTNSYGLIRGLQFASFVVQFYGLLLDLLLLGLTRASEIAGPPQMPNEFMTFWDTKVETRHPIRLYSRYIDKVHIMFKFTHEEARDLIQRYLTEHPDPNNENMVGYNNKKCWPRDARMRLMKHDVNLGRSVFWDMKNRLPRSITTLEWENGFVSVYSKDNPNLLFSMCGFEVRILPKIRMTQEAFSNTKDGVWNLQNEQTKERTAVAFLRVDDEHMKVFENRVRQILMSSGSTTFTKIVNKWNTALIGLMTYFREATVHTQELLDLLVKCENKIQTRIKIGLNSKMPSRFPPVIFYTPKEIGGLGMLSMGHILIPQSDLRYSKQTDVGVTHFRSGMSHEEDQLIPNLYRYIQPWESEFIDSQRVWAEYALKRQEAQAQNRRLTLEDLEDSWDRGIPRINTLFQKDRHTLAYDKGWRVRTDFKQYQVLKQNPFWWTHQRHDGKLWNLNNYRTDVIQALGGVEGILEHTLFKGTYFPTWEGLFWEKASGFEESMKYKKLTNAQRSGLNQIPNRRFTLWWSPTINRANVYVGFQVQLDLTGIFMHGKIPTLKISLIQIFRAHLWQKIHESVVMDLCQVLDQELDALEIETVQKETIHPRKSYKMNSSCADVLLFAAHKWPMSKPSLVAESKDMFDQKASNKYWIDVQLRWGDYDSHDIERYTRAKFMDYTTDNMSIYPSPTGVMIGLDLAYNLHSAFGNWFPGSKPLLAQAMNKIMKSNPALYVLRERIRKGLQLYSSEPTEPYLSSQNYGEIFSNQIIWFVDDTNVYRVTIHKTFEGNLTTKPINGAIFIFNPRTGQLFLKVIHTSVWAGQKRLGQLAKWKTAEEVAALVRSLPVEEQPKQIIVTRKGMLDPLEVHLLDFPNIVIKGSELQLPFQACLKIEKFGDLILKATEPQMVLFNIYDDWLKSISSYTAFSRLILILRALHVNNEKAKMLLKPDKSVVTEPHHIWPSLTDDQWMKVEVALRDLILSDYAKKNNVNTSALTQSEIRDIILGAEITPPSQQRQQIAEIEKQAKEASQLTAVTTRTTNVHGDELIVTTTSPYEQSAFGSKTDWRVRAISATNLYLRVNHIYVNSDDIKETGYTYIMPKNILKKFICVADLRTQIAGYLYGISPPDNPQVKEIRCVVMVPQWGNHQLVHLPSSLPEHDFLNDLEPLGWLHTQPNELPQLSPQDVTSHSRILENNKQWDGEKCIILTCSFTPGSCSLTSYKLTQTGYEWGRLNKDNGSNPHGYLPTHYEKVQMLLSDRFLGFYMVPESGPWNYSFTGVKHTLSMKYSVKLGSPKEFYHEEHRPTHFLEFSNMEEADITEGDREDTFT
UniProt Q9FMF9: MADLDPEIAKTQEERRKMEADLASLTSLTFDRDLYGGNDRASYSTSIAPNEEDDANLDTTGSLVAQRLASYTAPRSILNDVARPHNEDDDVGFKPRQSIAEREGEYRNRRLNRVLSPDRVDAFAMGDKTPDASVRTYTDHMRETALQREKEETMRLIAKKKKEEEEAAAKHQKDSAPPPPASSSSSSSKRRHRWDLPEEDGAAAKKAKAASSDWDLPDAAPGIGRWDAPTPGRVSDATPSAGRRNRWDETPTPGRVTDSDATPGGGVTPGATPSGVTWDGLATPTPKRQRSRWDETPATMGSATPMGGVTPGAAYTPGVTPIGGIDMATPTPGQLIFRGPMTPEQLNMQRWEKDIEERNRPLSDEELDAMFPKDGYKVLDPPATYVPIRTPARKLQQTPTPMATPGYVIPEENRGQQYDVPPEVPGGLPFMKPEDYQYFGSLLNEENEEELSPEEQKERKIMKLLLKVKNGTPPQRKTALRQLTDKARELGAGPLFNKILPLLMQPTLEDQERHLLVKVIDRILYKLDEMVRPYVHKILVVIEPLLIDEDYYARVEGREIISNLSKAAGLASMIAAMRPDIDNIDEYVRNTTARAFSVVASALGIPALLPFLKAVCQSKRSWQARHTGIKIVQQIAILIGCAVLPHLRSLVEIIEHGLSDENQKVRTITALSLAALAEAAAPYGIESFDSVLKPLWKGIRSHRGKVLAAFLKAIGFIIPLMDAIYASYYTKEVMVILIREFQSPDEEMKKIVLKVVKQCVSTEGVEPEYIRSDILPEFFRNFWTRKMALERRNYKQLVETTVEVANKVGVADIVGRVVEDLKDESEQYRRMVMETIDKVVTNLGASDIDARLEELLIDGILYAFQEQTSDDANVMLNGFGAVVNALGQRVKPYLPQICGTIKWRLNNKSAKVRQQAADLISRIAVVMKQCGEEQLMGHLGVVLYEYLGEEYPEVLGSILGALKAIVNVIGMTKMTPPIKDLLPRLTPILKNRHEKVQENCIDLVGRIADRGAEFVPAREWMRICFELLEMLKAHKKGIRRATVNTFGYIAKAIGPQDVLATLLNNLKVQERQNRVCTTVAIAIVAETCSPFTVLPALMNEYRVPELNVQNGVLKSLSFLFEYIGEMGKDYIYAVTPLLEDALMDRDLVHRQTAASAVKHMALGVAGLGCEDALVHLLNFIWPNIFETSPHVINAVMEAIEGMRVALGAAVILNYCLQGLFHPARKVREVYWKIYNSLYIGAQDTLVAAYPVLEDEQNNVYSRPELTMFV
UniProt Q9LS97: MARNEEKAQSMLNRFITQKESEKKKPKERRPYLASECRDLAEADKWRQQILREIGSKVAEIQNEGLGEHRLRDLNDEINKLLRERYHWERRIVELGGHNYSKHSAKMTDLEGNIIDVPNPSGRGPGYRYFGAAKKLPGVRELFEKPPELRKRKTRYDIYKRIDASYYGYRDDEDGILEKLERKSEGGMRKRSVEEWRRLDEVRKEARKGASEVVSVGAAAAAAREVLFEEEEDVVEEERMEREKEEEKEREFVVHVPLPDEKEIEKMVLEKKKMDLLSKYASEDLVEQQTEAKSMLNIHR
UniProt Q9SYP1: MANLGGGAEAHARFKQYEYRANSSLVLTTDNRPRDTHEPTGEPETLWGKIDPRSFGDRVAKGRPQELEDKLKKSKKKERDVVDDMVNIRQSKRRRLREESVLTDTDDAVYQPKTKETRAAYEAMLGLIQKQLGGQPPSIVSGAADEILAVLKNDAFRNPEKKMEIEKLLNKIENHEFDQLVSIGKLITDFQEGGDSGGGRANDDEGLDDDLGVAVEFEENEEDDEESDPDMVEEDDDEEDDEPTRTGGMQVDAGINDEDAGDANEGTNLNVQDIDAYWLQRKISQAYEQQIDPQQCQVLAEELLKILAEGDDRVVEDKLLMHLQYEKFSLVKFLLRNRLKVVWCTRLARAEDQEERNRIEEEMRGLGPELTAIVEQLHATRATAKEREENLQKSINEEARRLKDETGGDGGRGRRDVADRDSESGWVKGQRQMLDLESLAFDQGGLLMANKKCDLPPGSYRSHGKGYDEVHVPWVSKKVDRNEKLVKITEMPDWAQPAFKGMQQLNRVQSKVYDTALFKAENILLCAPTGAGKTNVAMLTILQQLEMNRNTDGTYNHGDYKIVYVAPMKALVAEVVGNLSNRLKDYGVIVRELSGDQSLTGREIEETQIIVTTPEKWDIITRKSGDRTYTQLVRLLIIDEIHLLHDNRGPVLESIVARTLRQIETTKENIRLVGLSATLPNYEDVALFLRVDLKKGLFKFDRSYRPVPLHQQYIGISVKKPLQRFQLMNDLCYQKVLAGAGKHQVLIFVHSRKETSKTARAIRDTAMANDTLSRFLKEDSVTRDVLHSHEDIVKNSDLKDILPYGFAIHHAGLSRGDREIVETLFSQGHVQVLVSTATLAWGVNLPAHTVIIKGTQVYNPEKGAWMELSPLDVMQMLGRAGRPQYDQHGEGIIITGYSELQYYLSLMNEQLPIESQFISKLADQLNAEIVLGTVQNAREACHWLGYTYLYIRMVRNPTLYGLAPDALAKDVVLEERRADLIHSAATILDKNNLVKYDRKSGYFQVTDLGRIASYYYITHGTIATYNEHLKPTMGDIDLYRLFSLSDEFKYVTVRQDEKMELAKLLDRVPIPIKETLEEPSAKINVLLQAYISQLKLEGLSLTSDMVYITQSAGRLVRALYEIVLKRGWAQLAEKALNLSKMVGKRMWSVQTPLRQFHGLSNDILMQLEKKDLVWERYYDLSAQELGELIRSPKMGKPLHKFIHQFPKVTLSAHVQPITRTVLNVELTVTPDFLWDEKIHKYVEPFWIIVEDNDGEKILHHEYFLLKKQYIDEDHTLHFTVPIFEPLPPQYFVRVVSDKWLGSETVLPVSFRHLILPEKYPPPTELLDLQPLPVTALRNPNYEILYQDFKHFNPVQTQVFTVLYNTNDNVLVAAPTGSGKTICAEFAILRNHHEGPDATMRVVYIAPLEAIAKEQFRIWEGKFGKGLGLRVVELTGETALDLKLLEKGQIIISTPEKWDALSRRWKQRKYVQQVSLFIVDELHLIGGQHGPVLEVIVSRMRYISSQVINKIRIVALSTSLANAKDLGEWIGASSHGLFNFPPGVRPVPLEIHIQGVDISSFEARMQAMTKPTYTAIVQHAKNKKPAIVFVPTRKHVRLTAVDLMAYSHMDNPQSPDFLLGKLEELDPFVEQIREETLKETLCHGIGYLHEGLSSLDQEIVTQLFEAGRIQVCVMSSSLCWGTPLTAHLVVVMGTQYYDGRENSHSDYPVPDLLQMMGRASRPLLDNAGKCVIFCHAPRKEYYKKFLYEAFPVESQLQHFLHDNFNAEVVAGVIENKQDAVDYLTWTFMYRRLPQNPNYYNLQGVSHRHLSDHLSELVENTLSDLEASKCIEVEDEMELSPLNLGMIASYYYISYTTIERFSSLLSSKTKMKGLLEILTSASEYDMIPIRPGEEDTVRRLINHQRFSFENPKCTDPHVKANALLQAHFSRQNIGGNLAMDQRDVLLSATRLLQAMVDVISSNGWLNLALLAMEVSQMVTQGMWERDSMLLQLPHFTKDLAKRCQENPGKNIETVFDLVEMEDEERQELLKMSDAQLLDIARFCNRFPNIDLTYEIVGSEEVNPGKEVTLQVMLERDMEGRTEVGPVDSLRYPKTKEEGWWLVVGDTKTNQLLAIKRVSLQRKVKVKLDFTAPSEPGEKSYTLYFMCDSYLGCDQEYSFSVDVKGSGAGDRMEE

Target: T1, MOS4-HA (full-length MOS4 with a C-terminal triple hemagglutinin tag, native promoter) (Arabidopsis thaliana) (UniProt Q949S9)
T1 sequence: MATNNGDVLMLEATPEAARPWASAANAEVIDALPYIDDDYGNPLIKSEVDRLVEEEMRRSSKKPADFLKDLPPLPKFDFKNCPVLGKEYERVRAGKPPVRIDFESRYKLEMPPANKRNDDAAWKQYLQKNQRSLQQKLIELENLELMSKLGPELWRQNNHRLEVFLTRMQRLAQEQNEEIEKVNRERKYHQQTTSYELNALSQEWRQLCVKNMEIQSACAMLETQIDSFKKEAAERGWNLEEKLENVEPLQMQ
Assay: affinity purification with mass spectrometry; MOS4-HA precipitated with anti-HA microbeads from dialysed nuclear extract (buffer NE-3: 20 mM HEPES-KOH pH 7.9, 100 mM KCl) of about 100 g leaf tissue of MOS4-HA mos4-1 plants, on ice; eluate on 12% SDS-PAGE, silver-stained, lane cut into eight pieces, MS; Col-0 as control

Molecule: EMB2765; helicase (AT2G38770) (from UniProt F4ITX4)
binding: binds

Molecule: SUS2/EMB177; embryogenesis (AT1G80070) (from UniProt Q9SSD2 1-2359)
binding: binds

Molecule: putative splicing factor similar to RCN1; PP2A regulator (AT5G64270) (from UniProt Q9FMF9)
binding: binds

Molecule: similar to two coiled coil domains of eukaryotic ori (AT3G18790) (from UniProt Q9LS97)
binding: binds

B2: EMB2733/ESP3; DEAD-box like helicase (AT1G32490) (protein, UniProt Q8VY00 1-1044)
chain: MASNDLKTWVSDKLMMLLGYSQAAVVNYLIAMAKKTKSPTELVGELVDYGFSSSGDTRSFAEEIFARVPRKTAGVNLYQKHEAEAAMLVRKQKTYALLDADDDEDEVVVEKKSSVSESRKSDKGKKRFRKKSGQSDESDGEVAVREDSRHVRRKVSEEDDGSESEEERVRDQKEREELEQHLKDRDTARTRKLTEQTLSKKEKEEAVRRANALEKDDLYSLRKVSRQEYLKKREQKKLDELRDEIEDEQYLFGGEKLTETELREFRYKKELYDLVKKRTQDEDNVEEYRIPDAYDQEGGVDQEKRFSVAVQRYRDLDSTEKMNPFAEQEAWEDHQIGKATLKFGAKNKQASDDYQFVFEDQINFIKESVMAGENYEDAMDAKQKSQDLAEKTALEELQEVRRSLPIYTYRDQLLKAVEEHQVLVIVGDTGSGKTTQIPQYLHEAGYTKRGKVGCTQPRRVAAMSVAARVAQEMGVKLGHEVGYSIRFEDCTSDKTVLKYMTDGMLLRELLGEPDLASYSVVIVDEAHERTLSTDILFGLVKDIARFRPDLKLLISSATMDAEKFSDYFDTAPIFSFPGRRYPVEINYTSAPEADYMDAAIVTILTIHVREPLGDILVFFTGQEEIETAEEILKHRIRGLGTKIRELIICPIYANLPSELQAKIFEPTPEGARKVVLATNIAETSLTIDGIKYVVDPGFSKMKSYNPRTGMESLLITPISKASATQRAGRAGRTSPGKCYRLYTAFNYNNDLEENTVPEVQRTNLASVVLALKSLGIHDLINFDFMDPPPAEALVKSLELLFALGALNKLGELTKAGRRMAEFPLDPMLSKMIVVSDKYKCSDEIISIAAMLSIGGSIFYRPKDKQVHADNARMNFHTGNVGDHIALLKVYSSWKETNFSTQWCYENYIQVRSMKRARDIRDQLEGLLERVEIDISSNLNELDSVRKSIVAGFFPHTAKLQKNGSYRTVKHPQTVHIHPNSGLSQVLPRWVVYHELVLTSKEYMRQVTELKPEWLIELAPHYYQLKDVEDAASKKMPKGAGKAAM
binding: binds

B5: CLO/GFA1/MEE5; translation elongation; nucleic acid binding (AT1G06220) (protein, UniProt Q9LNC5 1-987)
chain: MESSLYDEFGNYVGPEIESDRDSDDEVEDEDLQDKHLEENGSDGEQGPGGSNGWITTINDVEMENQIVLPEDKKYYPTAEEVYGEDVETLVMDEDEQPLEQPIIKPVRDIRFEVGVKDQATYVSTQFLIGLMSNPALVRNVALVGHLQHGKTVFMDMLVEQTHHMSTFNAKNEKHMKYTDTRVDEQERNISIKAVPMSLVLEDSRSKSYLCNIMDTPGHVNFSDEMTASLRLADGAVLIVDAAEGVMVNTERAIRHAIQDHLPIVVVINKVDRLITELKLPPRDAYYKLRHTIEVINNHISAASTTAGDLPLIDPAAGNVCFASGTAGWSFTLQSFAKMYAKLHGVAMDVDKFASRLWGDVYYHSDTRVFKRSPPVGGGERAFVQFILEPLYKIYSQVIGEHKKSVETTLAELGVTLSNSAYKLNVRPLLRLACSSVFGSASGFTDMLVKHIPSPREAAARKVDHSYTGTKDSPIYESMVECDPSGPLMVNVTKLYPKSDTSVFDVFGRVYSGRLQTGQSVRVLGEGYSPEDEEDMTIKEVTKLWIYQARYRIPVSSAPPGSWVLIEGVDASIMKTATLCNASYDEDVYIFRALQFNTLPVVKTATEPLNPSELPKMVEGLRKISKSYPLAITKVEESGEHTILGTGELYLDSIMKDLRELYSEVEVKVADPVVSFCETVVESSSMKCFAETPNKKNKITMIAEPLDRGLAEDIENGVVSIDWNRKQLGDFFRTKYDWDLLAARSIWAFGPDKQGPNILLDDTLPTEVDRNLMMAVKDSIVQGFQWGAREGPLCDEPIRNVKFKIVDARIAPEPLHRGSGQMIPTARRVAYSAFLMATPRLMEPVYYVEIQTPIDCVTAIYTVLSRRRGHVTSDVPQPGTPAYIVKAFLPVIESFGFETDLRYHTQGQAFCLSVFDHWAIVPGDPLDKAIQLRPLEPAPIQHLAREFMVKTRRRKGMSEDVSGNKFFDEAMMVELAQQTGDLHLQMI
binding: binds

Results, then the molecule that gave them:

binding: binds
Molecule: EMB1507; DEAD-box helicase (AT1G20960) (from UniProt Q9SYP1 1-2171)

binding: binds
Molecule: transcription-coupled DNA repair-related; RNA processing (AT5G28740) (from UniProt Q9LKU3)

binding: binds
B1: PRL1/MAC2; WD-40 repeat family (protein, UniProt Q42384 1-486)
chain: MPAPTTEIEPIEAQSLKKLSLKSLKRSLELFSPVHGQFPPPDPEAKQIRLSHKMKVAFGGVEPVVSQPPRQPDRINEQPGPSNALSLAAPEGSKSTQKGATESAIVVGPTLLRPILPKGLNYTGSSGKSTTIIPANVSSYQRNLSTAALMERIPSRWPRPEWHAPWKNYRVIQGHLGWVRSVAFDPSNEWFCTGSADRTIKIWDVATGVLKLTLTGHIEQVRGLAVSNRHTYMFSAGDDKQVKCWDLEQNKVIRSYHGHLSGVYCLALHPTLDVLLTGGRDSVCRVWDIRTKMQIFALSGHDNTVCSVFTRPTDPQVVTGSHDTTIKFWDLRYGKTMSTLTHHKKSVRAMTLHPKENAFASASADNTKKFSLPKGEFCHNMLSQQKTIINAMAVNEDGVMVTGGDNGSIWFWDWKSGHSFQQSETIVQPGSLESEAGIYAACYDNTGSRLVTCEADKTIKMWKEDENATPETHPINFKPPKEIRRF

binding: binds
B3: chromatin protein family (AT1G77180) (protein, UniProt O80653 1-613)
chain: MKSLNDLPAPKSTTTTYYDHSNDAWFKNRVTESETVKSSSIKFKVVPAYLNRQGLRPKNPEDFGDGGAFPEIHLPQYPLLMGKNKSNKPGAKTLPVTVDAQGNVVFDAIVRQNENSRKIVYSQHKDIIPKFLKNEGDLGTVVDEEEELQKEIQETAEETKAAIEKIVNVRLSAAQPSNIARQSGDSQYIKYKPSQQSSAFNSGAKERIIRMVEMPVDPLDPPKFKHKRVPRASGSPPVPVMHSPPRPVTVKDQQDWKIPPCISNWKNPKGYTIPLDKRLAADGRGLQDVQINDNFAKLSEALYVAEQKAREAVSMRSKVQKEMVMKDKERKEQELRALAQKARSERTGAAMSMPVSSDRGRSESVDPRGDYDNYDQDRGREREREEPQETREEREKRIQREKIREERRRERERERRLDAKDAAMGKKSKITRDRDRDISEKVALGMASTGGKGGGEVMYDQRLFNQDKGMDSGFAADDQYNLYDKGLFTAQPTLSTLYKPKKDNDEEMYGNADEQLDKIKNTERFKPDKAFTGASERVGSKRDRPVEFEKEEEQDPFGLEKWVSDLKKGKKPLDKIGSGGTMRASGGGGSSSRDDDHGGSGRTKINFERSDRR

binding: binds
B4: AtCDC5/MAC1; R2-R3 Myb transcription factor (protein, UniProt P92948 1-844)
chain: MRIMIKGGVWKNTEDEILKAAVMKYGKNQWARISSLLVRKSAKQCKARWYEWLDPSIKKTEWTREEDEKLLHLAKLLPTQWRTIAPIVGRTPSQCLERYEKLLDAACTKDENYDAADDPRKLRPGEIDPNPEAKPARPDPVDMDEDEKEMLSEARARLANTRGKKAKRKAREKQLEEARRLASLQKRRELKAAGIDGRHRKRKRKGIDYNAEIPFEKRAPAGFYDTADEDRPADQVKFPTTIEELEGKRRADVEAHLRKQDVARNKIAQRQDAPAAILQANKLNDPEVVRKRSKLMLPPPQISDHELEEIAKMGYASDLLAENEELTEGSAATRALLANYSQTPRQGMTPMRTPQRTPAGKGDAIMMEAENLARLRDSQTPLLGGENPELHPSDFTGVTPRKKEIQTPNPMLTPSMTPGGAGLTPRIGLTPSRDGSSFSMTPKGTPFRDELHINEDMDMHESAKLERQRREEARRSLRSGLTGLPQPKNEYQIVAQPPPEESEEPEEKIEEDMSDRIAREKAEEEARQQALLKKRSKVLQRDLPRPPAASLAVIRNSLLSADGDKSSVVPPTPIEVADKMVREELLQLLEHDNAKYPLDDKAEKKKGAKNRTNRSASQVLAIDDFDENELQEADKMIKEEGKFLCVSMGHENKTLDDFVEAHNTCVNDLMYFPTRSAYELSSVAGNADKVAAFQEEMENVRKKMEEDEKKAEHMKAKYKTYTKGHERRAETVWTQIEATLKQAEIGGTEVECFKALKRQEEMAASFRKKNLQEEVIKQKETESKLQTRYGNMLAMVEKAEEIMVGFRAQALKKQEDVEDSHKLKEAKLATGEEEDIAIAMEASA

binding: binds
B6: zinc finger (CCCH-type) family protein; RNA binding (AT1G07360) (protein, UniProt Q9LNV5 1-481)
chain: MAHRILRDHEADGWERSDFPIICESCLGDNPYVRMTKANYDKECKICTRPFTVFRWRPGRDARYKKTEICQTCCKLKNVCQVCLLDLEYGLPVQVRDTALNISTHDSIPKSDVNREYFAEEHDRKARAGLDYESSFGKMRPNDTILKLQRTTPYYKRNRAHVCSFFIRGECTRGAECPYRHEMPETGELSQQNIKDRYYGVNDPVAMKLLGKAGEMGTLESPDDESIKTLYVGGLNSRILEQDIRDQFYAHGEIESIRILADKACAFVTYTSREGAEKAAQELSNRLVINGQRLKLTWGRPKPDQDGANQQGGVAHSGLLPRAVISQQHNQPPPMQQYYMHPPPANQDKPYYPSMDPQRMGAVISTQEAGGSSTENNGASSSSYMMPPHQSYPPPPYGYMPSPYQQQYPPNHHHQPSPMQHYAPPPAAYPYPQQPGPGSRPAPSPTAVSAISPDSAPAGSGAPSGSSQQAPDVSTATGSSQ

Results are given in words; binding and its absence hold for the method and conditions named. Binding seen in cells or lysates may run through a third protein. Here binding means that the protein was enriched with, or labelled near, the bait; the list need not be complete. Where a sequence is shown, tags or fusion partners need not be part of it. One block for each molecule: values may come before it.
